PubChem BioAssay AID2685 (National Center for Advancing Translational Sciences (NCATS), 2010)
This is one part of the list. Further columns of the screen follow, without active or inactive calls. Compounds called inactive in the main read-out are mostly missing here. The note in brackets gives the kind of curve behind each potency; many fits are weak.

Assay: qHTS Assay for Lipid Storage Modulators in Drosophila S3 Cells;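 for cell number change: cells counted by Cell Tracker Red CMTPX staining in the red channel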
Conditions: BODIPY lipid droplet fluorescence, 18-24 h; for cell number change: measured here: cell count max response, cells fed with added oleic acid
Method in brief: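 Drosophila S3 cells loaded with oleic acid (400 uM, as added) and compounds at several concentrations; lipid droplets imaged by 488-nm laser-scanning cytometry, 500–530 nm intensity and object ratio to cell channel. Percent activity normalized to 20 uM Triacsin C.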

[1] = measured here: lipid fluorescence (Fed channel) AC50, cells fed with added oleic acid
[2] = measured here: cell number channel AC50, cells fed with added oleic acid

Row | Compound | cell number change [%] | AC50 [1] | AC50 [2]
1 | CC(C)(C)N(CC(=O)NC1CCCCC1)C(=O)CS(=O)CC(=O)Nc1ccc(F)cc1 (centres undefined) | 4.62 | 29.1 µM [rising, single point] | 
2 | O=C(NCc1ccccc1F)C1CCCN(C(=O)Nc2ccccc2)C1 (centres undefined) |  | 29.1 µM [rising, partial curve, poor fit] | 
3 | Cc1cc(C)cc(NC(=O)CSc2nc3ccncc3[nH]2)c1 | -23.7 |  | 0.146 µM [falling, full curve, poor fit]
4 | COc1ccc(OC)c(Nc2nc(-c3ccc(O)c(O)c3)cs2)c1 |  | 0.92 µM [rising, partial curve] | 
5 | CC(C)C[C@H](NC(=O)c1nc[nH]c1C(=O)NC1CCN(C(=O)OC(C)(C)C)CC1)C(=O)OCc1ccccc1 | -51.3 | 29.1 µM [falling, single point] | 32.6 µM [falling, single point]
6 | O=C(N/N=C/c1ccc(Cl)c(Cl)c1)c1ccc2nc[nH]c2c1 |  | 0.58 µM [rising, single point] | 
7 | COc1ccc(-c2nc(NC(=O)Cn3ccc(C(F)(F)F)n3)sc2C)cc1 |  | 8.2 µM [rising, partial curve] | 0.651 µM [rising, single point]
8 | CC(C)C[C@H](NC(=O)c1nc[nH]c1C(=O)NCc1ccc(CNC(=O)OC(C)(C)C)cc1)C(=O)OCc1ccccc1 | 73.1 | 2.06 µM [falling, full curve] | 29.1 µM [rising, single point]
9 | C=CCSc1nsc(NC(=O)Nc2ccc(F)cc2)n1 |  | 6.51 µM [falling, partial curve] | 
10 | CC(C)(C)C(=O)NC(=S)Nc1ccc(Cc2ccncc2)cc1 | -22.5 |  | 
11 | CCOC(=O)C(C)Sc1nc(-c2ccco2)cc(C(F)(F)F)c1C#N (centres undefined) | -17.5 |  | 
12 | CCN(C(=O)CSc1n[nH]c(-c2cc(Cl)ccc2OC)n1)C1CCS(=O)(=O)C1 (centres undefined) | 18.8 | 0.58 µM [rising, partial curve, poor fit] | 
13 | C#CCOC(=O)C(NC(=O)c1ccccc1)=C(C)C | 58.9 | 3.26 µM [rising, partial curve] | 5.8 µM [rising, partial curve, poor fit]
14 | CC(C)OCCCNc1ccc(N2C(=O)CCCC2=O)cc1[N+](=O)[O-] | 12.2 | 0.00517 µM [falling, full curve, poor fit] | 
15 | COc1ccccc1OCCCC(=O)Nc1nccs1 | -7.98 | 0.731 µM [falling, single point] | 
16 | O=C1COc2ccc(C(=O)COC(=O)Cc3c(F)cccc3Cl)cc2N1 | 13.7 |  | 
17 | COc1ccc(NC(=O)NCc2ccc(Cl)cc2)cc1 | 29.8 | 0.58 µM [rising, single point] | 0.231 µM [rising, full curve, poor fit]
18 | CCCN(CC(=O)Nc1ccccc1C)C(=O)c1cc(=O)[nH]c2ccccc12 | 22.8 | 14.6 µM [rising, partial curve, poor fit] | 
19 | Cn1cc(CCCC(=O)NCc2ccc(F)cc2)c2ccccc21 | -18.3 | 29.1 µM [falling, single point] | 
20 | O=C1c2ccccc2C(=O)N1CC(=O)N1c2ccccc2Sc2ccccc21 | -4.9 | 0.116 µM [falling, full curve, poor fit] | 0.0058 µM [falling, full curve, poor fit]
21 | COc1ccc(C(=O)N2CCN(S(=O)(=O)c3ccc(Cl)cc3)CC2)cc1OC | 19.8 |  | 

Row | Compound | cell number change [%] | AC50 [1] | AC50 [2]
22 | COc1cc(N)c(Cl)cc1C(=O)OCC(=O)c1ccc2c(c1)NC(=O)CO2 | 19.8 |  | 0.461 µM [rising, full curve, poor fit]
23 | CC(NCCC(c1ccccc1)c1ccccc1)c1ccccc1 (centres undefined) | -73.9 | 18.4 µM [falling, single point] | 20.6 µM [falling, partial curve]
24 | CCc1ccc2[nH]c3nc(SCc4nnc(-c5ccccc5)o4)nnc3c2c1 | -20.7 | 18.4 µM [falling, partial curve] | 
25 | Nc1ncnc(Nc2ccc(F)cc2)n1 | -4.7 |  | 
26 | Cc1cc([N+](=O)[O-])nn1CCCC(=O)Nc1c(C)n(C)n(-c2ccccc2)c1=O | -23.9 | 0.517 µM [falling, partial curve, poor fit] | 
27 | Cc1ccccc1SCCNC(=O)CCc1ccccc1 | 72 | 6.51 µM [rising, single point] | 4.11 µM [rising, full curve]
28 | Cc1ccc(S(=O)(=O)c2ncccc2[N+](=O)[O-])cc1 | -65.4 | 8.2 µM [falling, partial curve] | 8.2 µM [falling, partial curve]
29 | COc1ccc(NC(=O)C2CC(=O)N(c3ccccc3C)C2)c(OC)c1 (centres undefined) | -19.7 | 6.31 µM [falling, single point] | 
30 | Cn1nc(C(=O)Nc2ccc(Cl)c(S(=O)(=O)N3CCOCC3)c2)c2ccccc2c1=O | -28.8 | 0.00461 µM [falling, full curve, poor fit] | 0.082 µM [falling, full curve, poor fit]
31 | O=C(Nc1ccc(Cl)cc1C(=O)NCCN1CCOCC1)c1ccc(Cl)cc1Cl | 29.1 | 23.1 µM [rising, single point] | 
32 | Cc1cc(C)c(S(=O)(=O)N(CC(=O)N2CCCC2)C2CCCCC2)c(C)c1 | -13.9 |  | 
33 | O=C(O)c1ccc(Oc2ccc(S(=O)(=O)c3ccc(C(=O)O)c(C(=O)O)c3)cc2)cc1 | 8.2 |  | 
34 | O=C(CCn1cccc1)NC1CCCc2ccccc21 (centres undefined) | 10.6 | 32.6 µM [falling, single point] | 
35 | CC(C)(C)c1ccc(C(=O)NCC(=O)NCC(C)(C)N2CCOCC2)cc1 | 24.6 |  | 
36 | CC(C)CC(=O)Nc1ccccc1N1CCN(C(=O)c2ccccc2)CC1 | -2.63 | 2.06 µM [rising, partial curve] | 
37 | O=C(CNC(=O)c1cccnc1)N=Nc1c(O)[nH]c2c(Br)cc(Br)cc12 | 6.49 | 5.17 µM [falling, single point] | 
38 | COc1ccc(OC)c(N2C(=O)C(Cl)=C(N3CCCCC3)C2=O)c1 | 3.63 | 14.6 µM [rising, single point] | 
39 | COc1cc(CNn2c(C)n[nH]c2=S)cc(Cl)c1OCc1ccc(F)cc1 | -47 |  | 
40 | CCN(CC)N=Nc1ccc(S(=O)(=O)Nc2c(C)n(C)n(-c3ccccc3)c2=O)cc1 | -18.2 |  | 
41 | CCN1CCN(Cc2ccc(NC(=O)c3cc(NC(=O)c4cc5cccc(OC)c5o4)cc(OC)c3)cc2C(F)(F)F)CC1 | -16.1 |  | 
42 | C/C(=N\NC(=O)C(=O)Nc1c(C)n(C)n(-c2ccccc2)c1=O)c1ccncc1 | -12 |  | 

Row | Compound | cell number change [%] | AC50 [1] | AC50 [2]
43 | Cc1ccc(NS(=O)(=O)c2cccc(C(=O)N3CCN(c4ncccn4)CC3)c2)cc1 | 2.8 | 0.58 µM [rising, single point] | 
44 | CC1=NNC(=O)C1CC(=O)N/N=C(\C)c1ccco1 (centres undefined) |  | 4.11 µM [falling, single point] | 
45 | COc1ccc(CCNC(=O)c2ccc3nc(-c4ccco4)c(-c4ccco4)nc3c2)cc1OC |  | 4.61 µM [falling, partial curve, poor fit] | 
46 | NS(=O)(=O)c1ccc(CNC(=O)c2ccccc2SCC(=O)N2CCCC2)cc1 | 15.8 | 29.1 µM [rising, single point] | 
47 | O=C(CCCCCNC(=S)Nc1ccc(Cl)cc1)C[N+](=O)[O-] |  | 0.116 µM [falling, single point] | 
48 | O=S(=O)(/N=C/c1ccccc1O)c1cccs1 | 8.43 |  | 
49 | COc1ccc(OC)c(NC(=O)C(C)SCc2nc3sc(C)c(C)c3c(=O)[nH]2)c1 (centres undefined) | -13.1 | 5.17 µM [falling, single point] | 6.51 µM [falling, single point]
50 | CN(Cc1ccccc1)C(=O)c1[nH]cnc1C(=O)Nc1ccc(Cl)cc1 | -64.2 |  | 25.9 µM [falling, single point]
51 | CCn1c(SC/C=C/c2ccccc2)nnc1-c1cnccn1 | 1.85 | 5.17 µM [rising, full curve] | 
52 | CN(C)c1ccnc(-n2cccc2/C=N/OCc2ccccc2)c1C#N |  | 0.00411 µM [rising, full curve, poor fit] | 2.31 µM [rising, partial curve]
53 | O=C(CCSc1ccccc1)Nc1nccs1 | 17.5 | 16.4 µM [rising, single point] | 
54 | O=C(COC(=O)c1ccccc1O)Nc1ncc(Cl)cc1Cl | -10.7 | 0.411 µM [rising, partial curve, poor fit] | 
55 | Cc1noc(C)c1COC(=O)c1ccc(F)c(S(=O)(=O)N2CCOCC2)c1 | 1 | 8.2 µM [rising, partial curve, poor fit] | 
56 | COc1ccc(CC(=O)NC2CCCc3ccccc32)cc1 (centres undefined) |  |  | 0.164 µM [falling, full curve, poor fit]
57 | O=C(COc1ccccc1Br)Nc1ccccc1C(F)(F)F | -32.5 |  | 29.1 µM [falling, single point]
58 | CSc1ccc(/C=C(/NC(=O)c2ccco2)C(=O)N2CCOCC2)cc1 | -10.8 |  | 
59 | Cc1ccc(C)c(C(=O)CC2(O)C(=O)N(C)c3ccccc32)c1 (centres undefined) | 1.25 |  | 
60 | O=C(OCC(=O)C12CC3CC(CC(C3)C1)C2)c1cccnc1 | -19.6 |  | 
61 | Cc1nn(-c2ccccc2)c(Cl)c1/C=N/NC(=O)c1nn(C)cc1[N+](=O)[O-] | -57.8 |  | 29.1 µM [falling, single point]
62 | COc1ccc(CNC(=O)c2cc(C3CC3)nc3c2cnn3C(C)C)cc1OC |  | 10.3 µM [falling, partial curve] | 

An excerpt of these results, tab-delimited.
Row	Compound	cell number change [%]	AC50 [1]	AC50 [2]
57	O=C(COc1ccccc1Br)Nc1ccccc1C(F)(F)F	-32.5		29.1 µM [falling, single point]
58	CSc1ccc(/C=C(/NC(=O)c2ccco2)C(=O)N2CCOCC2)cc1	-10.8		
